The subject of the test is L1210 leukemia ip in BDF1 mice, survival T/C. The test is described as follows: NCI In Vivo Anticancer Drug Screen. Data for tumor model L1210 Leukemia (intraperitoneal) in B6D2F1 (BDF1) mice. The conditions noted are these: T/C endpoint: mean survival time, higher T/C = longer survival.
Where [1] appears, read: dose: 100.0 mg/kg/injection, schedule: Q01DX009 (ip), vehicle: Klucel (hydroxypropylcellulose) (HPC).
[2] abbreviates: dose: 200.0 mg/kg/injection, schedule: Q01DX009 (ip), vehicle: Klucel (hydroxypropylcellulose) (HPC).
[3] abbreviates: dose: 400.0 mg/kg/injection, schedule: Q04DX002 (ip), vehicle: Klucel (hydroxypropylcellulose) (HPC).
Where [4] appears, read: dose: 300.0 mg/kg/injection, schedule: Q01DX001 (ip), vehicle: other.
The mark [5] stands for this setting: dose: 200.0 mg/kg/injection, schedule: Q04DX003 (ip), vehicle: saline.
The mark [6] stands for this setting: dose: 400.0 mg/kg/injection, schedule: Q01DX001 (ip), vehicle: carboxymethylcellulose (CMC).

The list does not hold the whole screen: it gathers tests that were run many times, whatever their T/C, doses with no T/C, and many T/C values between a quarter and a half above the control. Other doses and runs of a compound stand elsewhere. T/C is the treated group as % of the vehicle group. Some doses have a count of surviving animals in place of a T/C: the source files T/C as zero there, which appears to mark a toxic dose or a test without result, not a measured value. Some doses without a T/C left all or most animals alive at the check, yet need not have been tolerated: survival well below the control is almost never listed, so the zero probably covers shortened survival too. Counts of survivors are from the toxicity check (mostly the fifth day) where no day follows; animals may have died later. Schedule codes are those of the source, taken here to give the interval after Q, in days (D) or hours (H), and the number of doses after X. Some doses were run more than once; their values stand side by side, smallest first. Some schedule codes hold Z or #, which are not explained here. For survival time, the PubChem record calls one and a half times the control and up active, and a quarter to a half above the control has no call in these data; cut-offs in other NCI protocols can differ. Some T/C values carry the count of animals alive at the toxicity check (mostly the fifth day); where none is given, no animal had died by that day.

These results are taken from PubChem BioAssay AID248 (DTP/NCI, 2004).

As to `CCCCCCCN1CCC(C(=O)CC)(c2cccc(O)c2)CC1`, the survivor count under setting [1] was 0 of 3; the survivor count under setting [2] was 0 of 3; the survivor count (dose: 200.0 mg/kg/injection, schedule: Q04DX002 (ip), vehicle: Klucel (hydroxypropylcellulose) (HPC)) is listed as 0 of 3; the survivor count under setting [3] is recorded as 0 of 3.

For `CCn1cnc2c(=S)nc[nH]c21`, the T/C is, setting by setting: (dose: 60.0 mg/kg/injection, schedule: Q01DX009 (ip), vehicle: other) 131 % of control; (dose: 60.0 mg/kg/injection, schedule: Q01DX009 (oral), vehicle: other) 134 % of control; (dose: 60.0 mg/kg/injection, schedule: Q01DX009 (sc), vehicle: other) 149 % of control; (dose: 74.0 mg/kg/injection, schedule: Q01DX Z (oral), vehicle: carboxymethylcellulose (CMC)) 134 % of control [5 of 6 alive]; (dose: 120.0 mg/kg/injection, schedule: Q## X016 (ip), vehicle: other) 126 % of control; (dose: 120.0 mg/kg/injection, schedule: Q## X024 (ip), vehicle: other) 141 % of control. The T/C is 125 and 141 % of control (dose: 125.0 mg/kg/injection, schedule: Q01DX009 (ip), vehicle: saline); 133 % of control (dose: 125.0 mg/kg/injection, schedule: Q01DX010 (ip), vehicle: saline); 126 % of control (dose: 150.0 mg/kg/injection, schedule: Q## X003 (ip), vehicle: other); 138 % of control (dose: 240.0 mg/kg/injection, schedule: Q## X008 (ip), vehicle: other); 128 % of control under setting [4]; 131 % of control (dose: 300.0 mg/kg/injection, schedule: Q01DX001 (sc), vehicle: other). Also, the T/C was 140 % of control (dose: 300.0 mg/kg/injection, schedule: Q## X002 (ip), vehicle: other); 147 % of control (dose: 600.0 mg/kg/injection, schedule: Q01DX001 (ip), vehicle: other); 138 % of control (dose: 600.0 mg/kg/injection, schedule: Q## X002 (ip), vehicle: other); 142 % of control (dose: 1200.0 mg/kg/injection, schedule: Q01DX001 (oral), vehicle: other). The survivor count (dose: 250.0 mg/kg/injection, schedule: Q01DX010 (ip), vehicle: saline) is 1 of 6 and 2 of 6.

For `O=C1CC2CCCCC2O1` (centres undefined), the survivor count by setting is: (dose: 200.0 mg/kg/injection, schedule: Q01DX009 (ip), vehicle: saline with Tween-80) 2 of 3; under setting [4], 0 of 6 and 1 of 6.

In the case of `Cn1c(C[N+](C)(C)C)cc2ccccc21`, the survivor count (dose: 400.0 mg/kg/injection, schedule: Q04DX003 (ip), vehicle: saline with Tween-80) was 0 of 6.

Take `CC1c2ccccc2N(CCCN(C)C)c2ccccc21`: the survivor count by setting is: (dose: 100.0 mg/kg/injection, schedule: Q04DX003 (ip), vehicle: saline) 2 of 6; under setting [5], 0 of 6.

`NNC(=O)c1cccs1`: the survivor count is, setting by setting: (dose: 100.0 mg/kg/injection, schedule: Q01DX001 (ip), vehicle: carboxymethylcellulose (CMC)) 2 of 4; under setting [1], 1 of 6; (dose: 100.0 mg/kg/injection, schedule: Q04DX003 (ip), vehicle: Klucel (hydroxypropylcellulose) (HPC)) 6 of 6; (dose: 200.0 mg/kg/injection, schedule: Q01DX001 (ip), vehicle: carboxymethylcellulose (CMC)) 0 of 4; (dose: 200.0 mg/kg/injection, schedule: Q04DX003 (ip), vehicle: Klucel (hydroxypropylcellulose) (HPC)) 0 of 6; under setting [6], 0 of 4. For the setting “dose: 400.0 mg/kg/injection, schedule: Q04DX003 (ip), vehicle: Klucel (hydroxypropylcellulose) (HPC)”, the survivor count is listed as 0 of 6.

`C=C(Br)CN(CC)C(C)=O`: the survivor count was 5 of 6 under setting [5] and 0 of 6 (dose: 400.0 mg/kg/injection, schedule: Q04DX003 (ip), vehicle: saline).

For `COc1cc(-c2ccc(N)c(OC)c2)ccc1N`, the survivor count is given as 4 of 7 (dose: 125.0 mg/kg/injection, schedule: Q01DX Z (ip), vehicle: saline); 0 of 7 (dose: 250.0 mg/kg/injection, schedule: Q01DX Z (ip), vehicle: saline); 3 of 7 (dose: 500.0 mg/kg/injection, schedule: Q01DX Z (ip), vehicle: methylcellulose (MC)); 0 of 7 (dose: 500.0 mg/kg/injection, schedule: Q01DX Z (ip), vehicle: saline); 0 of 7 (dose: 750.0 mg/kg/injection, schedule: Q01DX Z (ip), vehicle: methylcellulose (MC)).

Take `O=S(=O)(F)c1ccccc1C[P+](c1ccccc1)(c1ccccc1)c1ccccc1`: the survivor count reads like this: (dose: 6.25 mg/kg/injection, schedule: Q01DX009 (ip), vehicle: Klucel (hydroxypropylcellulose) (HPC)) 4 of 6; (dose: 12.5 mg/kg/injection, schedule: Q01DX009 (ip), vehicle: Klucel (hydroxypropylcellulose) (HPC)) 6 of 6; (dose: 25.0 mg/kg/injection, schedule: Q01DX009 (ip), vehicle: Klucel (hydroxypropylcellulose) (HPC)) 4 of 6 and 5 of 6; (dose: 50.0 mg/kg/injection, schedule: Q01DX009 (ip), vehicle: Klucel (hydroxypropylcellulose) (HPC)) 0 of 6; under setting [1], 0 of 6; under setting [2], 0 of 6. The survivor count (dose: 400.0 mg/kg/injection, schedule: Q01DX009 (ip), vehicle: Klucel (hydroxypropylcellulose) (HPC)) is 0 of 6.

For the compound `CN=C(NC)c1ccc(NC(=O)/C=C\c2ccc(C(=O)Nc3ccc(C(=NC)NC)cc3)cc2)cc1`, the T/C (dose: 1.88 mg/kg/injection, schedule: Q01DX Z (ip), vehicle: saline) is 135 and 145 % of control; the T/C (dose: 2.0 mg/kg/injection, schedule: Q01DX Z (ip), vehicle: saline) was 145 % of control; the T/C (dose: 7.5 mg/kg/injection, schedule: Q01DX Z (ip), vehicle: saline) was 140 % of control; the T/C (dose: 8.0 mg/kg/injection, schedule: Q01DX Z (sc), vehicle: saline) was 134 % of control; the T/C (dose: 8.0 mg/kg/injection, schedule: Q02DX004 (im), vehicle: saline) was 135 % of control; the T/C (dose: 64.0 mg/kg/injection, schedule: Q01DX004 (im), vehicle: saline) was 149 % of control [5 of 6 alive]. Besides, the survivor count is, setting by setting: (dose: 15.0 mg/kg/injection, schedule: Q01DX Z (ip), vehicle: saline) 2 of 6; (dose: 30.0 mg/kg/injection, schedule: Q01DX Z (ip), vehicle: saline) 0 of 6; (dose: 60.0 mg/kg/injection, schedule: Q01DX Z (ip), vehicle: saline) 0 of 6; (dose: 120.0 mg/kg/injection, schedule: Q01DX Z (ip), vehicle: saline) 0 of 6.

For `O=C1c2ccccc2C(O)N1c1ccccc1` (centres undefined), under “dose: 200.0 mg/kg/injection, schedule: Q01DX001 (ip), vehicle: saline”, the survivor count is 4 of 4.

For `CCC1(CC)c2ccccc2C(CC)(CC)[N+]1(C)C`, under setting [6], the survivor count is reported as 3 of 6.

In the case of `CCOC(=O)COc1c(C)cccc1Cl`, under “dose: 400.0 mg/kg/injection, schedule: Q04DX002 (ip), vehicle: saline with Tween-80”, the survivor count is recorded as 0 of 3.

In the case of `C/C=C\S(=O)(=O)c1ccccc1`, the survivor count runs as follows: (dose: 100.0 mg/kg/injection, schedule: Q04DX002 (ip), vehicle: Klucel (hydroxypropylcellulose) (HPC)) 0 of 3; under setting [3], 0 of 3.

`CCCCCCCCCCC(CCCCCCC)(CCCCCCCC)CCCCCCCCC` (centres undefined): the T/C by setting is: (dose: 100.0 mg/kg/injection, schedule: Q01DX001 (ip), vehicle: saline with Tween-80) 126 % of control; (dose: 200.0 mg/kg/injection, schedule: Q01DX001 (ip), vehicle: saline with Tween-80) 129 % of control.
